Laboratory results published in paper PMC5923319 (Toxins, 2018).
No constants are given. Whether binding was seen depends on the method and setting. Binding seen in cells or lysates may run through a third protein. Some entries that bind do so weakly or less than the wild type.

Protein sequences, listed by entry. Tags and fused reporters are not part of them.
UniProt Q02563, whole entry: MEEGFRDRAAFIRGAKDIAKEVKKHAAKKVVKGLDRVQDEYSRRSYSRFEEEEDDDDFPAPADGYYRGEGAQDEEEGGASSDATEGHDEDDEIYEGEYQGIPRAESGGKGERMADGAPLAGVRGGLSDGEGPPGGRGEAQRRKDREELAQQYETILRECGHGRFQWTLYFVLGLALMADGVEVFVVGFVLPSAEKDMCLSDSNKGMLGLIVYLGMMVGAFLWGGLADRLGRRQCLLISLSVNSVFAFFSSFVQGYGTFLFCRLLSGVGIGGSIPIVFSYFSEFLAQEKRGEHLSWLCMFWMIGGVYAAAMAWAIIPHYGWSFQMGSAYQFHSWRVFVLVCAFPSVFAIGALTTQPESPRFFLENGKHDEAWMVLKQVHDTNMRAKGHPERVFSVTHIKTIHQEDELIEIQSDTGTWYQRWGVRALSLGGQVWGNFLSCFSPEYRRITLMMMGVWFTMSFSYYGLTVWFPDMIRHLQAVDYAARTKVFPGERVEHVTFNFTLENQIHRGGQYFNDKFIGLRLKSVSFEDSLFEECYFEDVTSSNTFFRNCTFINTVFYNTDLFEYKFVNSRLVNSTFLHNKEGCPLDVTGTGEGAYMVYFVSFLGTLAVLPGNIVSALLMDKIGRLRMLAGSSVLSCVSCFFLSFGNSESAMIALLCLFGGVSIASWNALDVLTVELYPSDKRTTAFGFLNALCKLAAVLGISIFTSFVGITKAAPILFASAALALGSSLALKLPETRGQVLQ
UniProt Q63564, whole entry: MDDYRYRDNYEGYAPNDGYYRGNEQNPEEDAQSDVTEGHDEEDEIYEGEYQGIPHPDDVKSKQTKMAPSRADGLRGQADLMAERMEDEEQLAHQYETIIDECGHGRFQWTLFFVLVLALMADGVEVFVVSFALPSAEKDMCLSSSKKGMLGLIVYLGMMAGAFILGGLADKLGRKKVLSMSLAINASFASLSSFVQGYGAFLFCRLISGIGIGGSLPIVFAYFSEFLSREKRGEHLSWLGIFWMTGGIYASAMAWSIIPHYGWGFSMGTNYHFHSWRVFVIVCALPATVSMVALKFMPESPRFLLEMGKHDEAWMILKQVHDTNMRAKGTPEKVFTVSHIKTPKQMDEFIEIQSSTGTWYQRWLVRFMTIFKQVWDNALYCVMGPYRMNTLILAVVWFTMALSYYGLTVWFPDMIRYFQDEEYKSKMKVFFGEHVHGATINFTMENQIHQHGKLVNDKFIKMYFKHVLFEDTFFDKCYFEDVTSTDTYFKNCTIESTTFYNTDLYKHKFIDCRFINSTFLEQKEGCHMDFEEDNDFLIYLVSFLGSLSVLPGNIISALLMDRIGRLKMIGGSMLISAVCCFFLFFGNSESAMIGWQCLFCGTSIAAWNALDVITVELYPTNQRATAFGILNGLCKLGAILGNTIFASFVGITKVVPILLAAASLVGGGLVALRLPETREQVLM

How the values were obtained:
[1] = molecular target: GST-fused receptor binding domain of BoNT/A2 (GST-HcA2) (Clostridium botulinum A2 Kyoto-F) (UniProt Q45894); assay: pull-down; only the target purified
[2] = molecular target: GST-fused receptor binding domain of BoNT/A1 (GST-HcA1) (Clostridium botulinum) (UniProt A2I2U2); assay: pull-down; only the target purified

Substance: SV2A of rat brain detergent extract (glycosylated) (from UniProt Q02563 1-742) (receptor)
- binding [1]: binds
- binding [2]: binds

Substance: SV2B of rat brain detergent extract (glycosylated) (from UniProt Q63564 1-683) (receptor)
- binding [1]: binds
- binding [2]: binds
